Assay results

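Plate-reader measure of the Venus reporter marking one vaccinia stage in infected cells (the cell line is not named here); read time unknown. The test concentration is not given here. Percent change in Venus reporter signal; lower (more negative) values mean stronger inhibition of that viral stage.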

Values are in %. The controls that fix the scale are not given here. Common to all entries: measured here: Venus reporter, other viral stage. Part of the compounds only, not a random draw; the main read-out is not listed here.

| SMILES | activity change (Venus) (%) |
|---|---|
| `O=C(C[C@H]1CC[C@@H]2[C@H](COC[C@H](O)CN2S(=O)(=O)c2ccccc2)O1)Nc1ccc(-c2ccccc2)cc1` | -53.13 |
| `C[C@@H]1CN([C@@H](C)CO)C(=O)c2cccc(NC(=O)Nc3ccccc3)c2O[C@@H]1CN(C)S(=O)(=O)c1ccc(Cl)cc1` | -30.37 |
| `C[C@H]1CN([C@@H](C)CO)C(=O)c2cccc(NC(=O)CCCCCC(=O)Nc3ccccc3N)c2O[C@@H]1CN(C)Cc1ccc2c(c1)OCO2` | -35.84 |
| `CO[C@H]1CN(C)C(=O)c2ccc(NC(=O)Nc3ccc(Cl)c(Cl)c3)cc2OC[C@H](C)NC[C@H]1C` | -35.89 |
| `O=C1CN(S(=O)(=O)Cc2ccccc2)C[C@H]2[C@@H](c3ccc(C#Cc4ccccc4)cc3)[C@H](CO)N12` | -26.86 |
| `CC(C)NC(=O)N1CCCCN2[C@H](CO)[C@H](c3ccc(C#Cc4ccccc4F)cc3)[C@H]2C1` | -81.51 |
| `C[C@H]1CN([C@@H](C)CO)C(=O)c2cc(NC(=O)Nc3cccc4ccccc34)ccc2O[C@H]1CN(C)CC1CCCCC1` | -26.51 |
| `O=C(Nc1cccc(F)c1)N1CC(=O)N2[C@H](C1)[C@@H](c1ccc(C#CCC3CCCC3)cc1)[C@@H]2CO` | -47.91 |
| `C[C@@H]1CN([C@@H](C)CO)C(=O)c2cc(-c3cccnc3)cnc2O[C@@H]1CN(C)Cc1ccc(Oc2ccccc2)cc1` | -43.02 |
| `O=C(C[C@H]1CC[C@@H]2[C@H](COC[C@@H](O)CN2S(=O)(=O)c2cccc(Cl)c2)O1)Nc1ccc(-c2ccccc2)cc1` | -71.58 |
| `N#C[C@H]1[C@H](c2ccc(C#Cc3ccc(F)cc3)cc2)[C@H](CO)N1C(=O)Nc1ccc(F)cc1` | -41.52 |
| `C[C@@H]1CN([C@H](C)CO)S(=O)(=O)c2ccc(C#Cc3ccc(F)cc3)cc2O[C@@H]1CN(C)C(=O)NC1CCCCC1` | -66.81 |
| `C[C@@H]1CN([C@@H](C)CO)S(=O)(=O)c2ccc(C#CC3CC3)cc2O[C@@H]1CN(C)Cc1cccc(F)c1` | -69.31 |
| `Cc1noc(C)c1S(=O)(=O)N(C)C[C@H]1OCc2ccccc2-c2c(n(C)c3ccccc23)C(=O)N([C@@H](C)CO)C[C@H]1C` | -34.88 |
| `Cc1noc(C)c1S(=O)(=O)Nc1ccc2c(c1)C(=O)N([C@H](C)CO)C[C@H](C)[C@@H](CN(C)S(=O)(=O)c1ccc(Cl)cc1)OCCCC[C@H](C)O2` | -52.45 |
| `C[C@H](CO)N1C[C@H](C)[C@@H](CN(C)C(=O)CN(C)C)Oc2cc(C#CCC3CCCC3)ccc2S1(=O)=O` | -69.27 |
| `C[C@@H]1CN([C@H](C)CO)C(=O)c2c(c3ccccc3n2C)-c2ccccc2CO[C@H]1CN(C)C(=O)c1cc(Cl)cc(Cl)c1` | -38.3 |
| `CCS(=O)(=O)N1[C@H](C#N)[C@H](c2ccc(C#CCC3CCCC3)cc2)[C@@H]1CO` | -53.68 |
| `COc1ccc(CN(C)C[C@@H]2OCCCC[C@H](C)Oc3ccc(NC(=O)Nc4ccc(C(F)(F)F)cc4)cc3C(=O)N([C@H](C)CO)C[C@H]2C)cc1` | -30.98 |
| `CO[C@H]1CN(C)C(=O)c2cc(NC(=O)c3ccc(Oc4ccccc4)cc3)ccc2OC[C@@H](C)NC[C@@H]1C` | -65.65 |
| `N#Cc1ccc(-c2ccc(C3[C@@H]4CN(C(=O)c5ccc6c(c5)OCO6)C[C@H]3N4)cc2)cc1` (some centres undefined) | -84.81 |
| `C[C@H]1CN([C@@H](C)CO)C(=O)c2cc(NC(=O)Cc3cn(C)c4ccccc34)ccc2O[C@@H]1CN(C)Cc1ccc(Cl)c(Cl)c1` | -41.01 |
| `C[C@@H]1CN([C@H](C)CO)C(=O)c2cc(C#Cc3ccccc3)cnc2O[C@H]1CN(C)C(=O)CCN1CCCCC1` | -33.6 |
| `O=C(C[C@@H]1CC[C@@H]2[C@H](COC[C@@H](O)CN2S(=O)(=O)c2ccccc2)O1)Nc1ccc(-c2ccccc2)cc1` | -43.5 |
| `O=C(C[C@H]1CC[C@H]2[C@@H](COC[C@@H](O)CN2S(=O)(=O)c2ccc(F)cc2)O1)NCc1ccc(Cl)c(Cl)c1` | -34.96 |
| `C[C@H]1CN([C@@H](C)CO)C(=O)Cc2cc(NC(=O)Nc3ccc(F)cc3)ccc2O[C@H]1CN(C)CC1CCCCC1` | -37.78 |
| `COc1ccc(-c2ccc([C@@H]3[C@H](CO)N4CCCCN(S(=O)(=O)c5cccs5)C[C@@H]34)cc2)cc1` | -42.13 |
| `CCCNC(=O)N1CC2(CCN(Cc3cccc(F)c3)CC2)c2c([nH]c3cc(OC)ccc23)[C@H]1CO` | -43.81 |
| `C[C@@H]1CN([C@@H](C)CO)C(=O)Cc2cc(NC(=O)Nc3ccccc3)ccc2O[C@@H]1CN(C)S(=O)(=O)c1ccc(Cl)cc1` | -35.57 |
| `CN1c2ccc(-c3cccc(F)c3)cc2[C@H]2[C@H](CCN2S(=O)(=O)c2cccc(F)c2)[C@H]1CO` | -57.59 |
| `COc1ccc(CN(C)C[C@@H]2Oc3ccc(NC(=O)Nc4cccc5ccccc45)cc3C(=O)N([C@@H](C)CO)C[C@@H]2C)cc1` | -31.34 |
| `Cc1ccc(S(=O)(=O)Nc2ccc3c(c2)C(=O)N([C@H](C)CO)C[C@@H](C)[C@H](CN(C)S(=O)(=O)c2ccc(C)cc2)OCCCC[C@H](C)O3)cc1` | -30.34 |
| `C[C@H]1CN([C@@H](C)CO)S(=O)(=O)c2ccc(C#Cc3cccc(F)c3)cc2O[C@H]1CN(C)C(=O)NC1CCCCC1` | -60.15 |
| `COc1ccc(CN(C)C[C@@H]2OCCCC[C@H](C)Oc3ccc(NC(=O)C4CCCCC4)cc3C(=O)N([C@@H](C)CO)C[C@@H]2C)cc1` | -46.29 |
| `C[C@H]1CCCCO[C@H](CN(C)C(=O)NC2CCCCC2)[C@@H](C)CN([C@@H](C)CO)C(=O)c2cc(NS(=O)(=O)c3ccc(Cl)cc3)ccc2O1` | -72.22 |
| `C[C@H](CO)N1C[C@H](C)[C@H](CN(C)S(=O)(=O)c2ccccc2F)Oc2cc(-c3ccccc3)ccc2S1(=O)=O` | -37.94 |
| `C[C@H]1CN([C@@H](C)CO)C(=O)c2c(c3ccccc3n2C)-c2ccccc2CO[C@H]1CN(C)Cc1ccc(F)cc1` | -46.33 |
| `COc1ccc(S(=O)(=O)N(C)C[C@H]2Oc3cc(C#CC4CCCC4)ccc3S(=O)(=O)N([C@H](C)CO)C[C@H]2C)cc1` | -45.74 |
| `C[C@H](CO)N1C[C@H](C)[C@H](CN(C)C(=O)Nc2ccc(F)cc2)Oc2ncc(C#Cc3ccc(F)cc3)cc2C1=O` | -46.85 |
| `C[C@@H]1CN([C@@H](C)CO)C(=O)c2cc(NC(=O)Nc3ccc(C(F)(F)F)cc3)ccc2O[C@@H](C)CCCCO[C@@H]1CN(C)C` | -52.76 |
| `Cc1ccc(-c2ccc3c(c2)O[C@H](CN(C)Cc2ccncc2)[C@@H](C)CN([C@H](C)CO)S3(=O)=O)cc1` | -39.13 |
| `COc1ccc(-c2ccc([C@H]3[C@@H](CO)N4CCCCN(C(=O)Cc5ccccc5)C[C@H]34)cc2)cc1` | -37.05 |
| `OC[C@@H]1[C@H](c2ccc(C#Cc3cccnc3)cc2)[C@H]2CN(Cc3ccccc3F)CCCCN12` | -48.22 |
| `C[C@@H]1CN([C@@H](C)CO)C(=O)c2cc(NC(=O)Nc3ccc(F)cc3)ccc2O[C@@H]1CN(C)Cc1ccc(Cl)c(Cl)c1` | -31.67 |
| `CNC[C@H]1Oc2cc(C#CC3CCCC3)ccc2S(=O)(=O)N([C@H](C)CO)C[C@H]1C` | -50.1 |
| `CC(C)c1cn(CC[C@@H]2CC[C@H](NS(=O)(=O)c3ccc(Cl)cc3)[C@@H](CO)O2)nn1` | -29.13 |

For reference, 3 entries once more:

{"smiles": "CN1c2ccc(-c3cccc(F)c3)cc2[C@H]2[C@H](CCN2S(=O)(=O)c2cccc(F)c2)[C@H]1CO", "activity change (Venus) (%)": "-57.59"}
{"smiles": "N#Cc1ccc(-c2ccc(C3[C@@H]4CN(C(=O)c5ccc6c(c5)OCO6)C[C@H]3N4)cc2)cc1", "stereo": "some centres undefined", "activity change (Venus) (%)": "-84.81"}
{"smiles": "Cc1noc(C)c1S(=O)(=O)Nc1ccc2c(c1)C(=O)N([C@H](C)CO)C[C@H](C)[C@@H](CN(C)S(=O)(=O)c1ccc(Cl)cc1)OCCCC[C@H](C)O2", "activity change (Venus) (%)": "-52.45"}

Source: PubChem BioAssay AID1053133 (Broad Institute, 2014).